Results taken from US10034868B2, “Methods for the prevention and the treatment of rapidly progressive glomerulonephritis” (INSERM (INSTITUT NATIONAL DE LA SANTÉ ET DE LA RECHERCHE …, priority 2014, dated 2018).
At least one structure is not confirmed: it was looked up by name or label, or the drawing left a doubt.

Key:
[1] = system: WKY rats; conditions: preventive administration, experimental anti-GBM disease; cited from earlier work
[2] = system: cultured podocytes; conditions: cited from earlier work
[3] = system: NTS-challenged NRF2KO and NRF2WT mice; assay: NTS-induced RPGN in NRF2KO mice and wild type congenic littermates, pioglitazone vs vehicle; format: in vivo, mouse; conditions: NRF2KO mice and wild type littermates in experimental RPGN
[4] = system: primary podocyte cultures; assay: Podocyte outgrowth and proliferation in primary culture from isolated glomeruli; format: cell-based, mouse; conditions: FIG. 5A
[5] = system: primary podocyte cultures; assay: Podocyte migration (Ibidi wounding insert, 500-μm gap); format: cell-based, mouse; conditions: rosiglitazone for 16 hours, migration over 12 hours; FIG. 5B

SMILES	crescent formation [1]	urinary protein excretion [1]	Ppar-γ activity [2]	Ppar-γ mRNA [2]	albumin urinary excretion [3]	renal failure as assessed by BUN levels ([3]; FIG. 9A)	glomerular damage (proportion of crescentic glomeruli) ([3]; FIG. 9B)	podocyte outgrowth area ([4]; glomeruli from Pod-PPARγ WT mice treated in vitro, assessed after four days)	Ki67 mRNA expression ([4]; rosiglitazone 10 μM for 16 hours, RT-PCR)	podocyte migration [5]
CCc1ccc(CCOc2ccc(CC3SC(=O)NC3=O)cc2)nc1 (stereo not drawn) [pioglitazone, Pioglitazone]	alleviate	alleviate	increases	increases	alleviated albumin urinary excretion by three-fold	alleviated	alleviated			
CN(CCOc1ccc(CC2SC(=O)NC2=O)cc1)c1ccccn1 (stereo not drawn) [rosiglitazone]								no different	no different	does not modify
Cc1c(C)c2c(c(C)c1O)CCC(C)(COc1ccc(CC3SC(=O)NC3=O)cc1)O2 (stereo not drawn) [troglitazone]	alleviate	alleviate								
